The values that follow come from US20250282714A1, “COMPOSITIONS FOR AND METHODS OF MODULATING RNA STABILITY” (Duke University, priority 2022, published 2025).

The test system of the series is MALAT1 triple helix. The series is described as follows: Isothermal titration calorimetry (ITC). In kind it is binding, human. The following applies: 25° C., Tris buffer pH 7.4. For orientation: ITC needs no label: the signal is the heat of the interaction.
Turning to `CN(C)CCCNC(=N)c1cccc(/N=N/Nc2cccc(C(=N)NCCCN(C)C)c2)c1` [DMZ-M1], the “-TDS” value is -0.115 kcal/mol, the DG is -1.73 kcal/mol and the DH was -1.61 kcal/mol.
`CN1CCN(CCNC(=N)c2cccc(/N=N/Nc3cccc(C(=N)NCCN4CCN(C)CC4)c3)c2)CC1` [DMZ-M10]: the “-TDS” value is -1.15 kcal/mol, the DG was -1.47 kcal/mol and the DH was -0.318 kcal/mol.
For `N=C(N)c1ccc(/N=N/Nc2ccc(C(=N)N)cc2)cc1` [DMZ-P0, diminazene, reference compound] the same measures were 0.409 kcal/mol, -1.46 kcal/mol and -1.87 kcal/mol.
As to `CN(C)CCCNC(=N)c1ccc(/N=N/Nc2ccc(C(=N)NCCCN(C)C)cc2)cc1` [DMZ-P1], the “-TDS” value was -0.16 kcal/mol.
For `N=C(NCc1ccc(Cl)cc1)c1ccc(/N=N/Nc2ccc(C(=N)NCc3ccc(Cl)cc3)cc2)cc1` [DMZ-P5], the “-TDS” value stood at 0.167 kcal/mol, the DG is -1.45 kcal/mol and the DH is -1.62 kcal/mol.
In the same order, the values of `N=C(NC1CCN(Cc2ccccc2)CC1)c1ccc(/N=N/Nc2ccc(C(=N)NC3CCN(Cc4ccccc4)CC3)cc2)cc1` [DMZ-P8] are -0.762 kcal/mol, -1.63 kcal/mol and -0.87 kcal/mol.
On to `N=C(NCCN1CCNCC1)c1ccc(/N=N/Nc2ccc(C(=N)NCCN3CCNCC3)cc2)cc1` [DMZ-P9], for which the “-TDS” value is -1.13 kcal/mol, the DG was -1.5 kcal/mol and the DH was -0.366 kcal/mol.
Consider `N=C(NCCC1CCN(Cc2ccccc2)CC1)c1ccc(/N=N/Nc2ccc(C(=N)NCCC3CCN(Cc4ccccc4)CC3)cc2)cc1` [DMZ-P13], for which the “-TDS” value is -0.908 kcal/mol, the DG was -1.56 kcal/mol and the DH is -0.65 kcal/mol.
